PubChem BioAssay AID1159578 | Peter MacCallum Cancer Centre – 2015
Assay: 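siRNA pools altering how lymphatic endothelial cells close a scratch wound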 (primary screen). System: human lymphatic endothelial cells. Knock-down reagent: siRNA pool against human genes, 40 nM. Time to read-out: 48 h after transfection. Detection: 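Cells stained with dye and imaged after a scratch; covered wound area and nuclei counted, duplicates averaged, migration set against mock wells and turned into a robust z-score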. Reading the numbers: migration robust z-score: higher = faster migration into the scratch; nuclei per well: higher = more cells in the well. Active means: 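Pools averaging fewer than 3300 nuclei are never called; remaining pools count as changed when migration robust z lies outside -2 to 2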. Calls: active = migration changed; inactive = no migration change, or too few cells.
In all, the deposit lists about 18,000 reagents; below is a part drawn at random. About 1,030 of them (5.7%) count as active. 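Inactive calls also include pools with fewer than 3300 nuclei, whose migration was not assessed.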 Raw values vary from plate to plate and are shown uncorrected. Entries without a mark were called inactive. Not all columns of the deposit are shown.

RNF39
- migration robust z-score: 1.27
- migration class with cell-count check: migration z between -2 and 2; enough cells
- nuclei per well, duplicate mean: 5776

ATP5IF1
- migration robust z-score: 0.52
- migration class with cell-count check: migration z between -2 and 2; enough cells
- nuclei per well, duplicate mean: 5244

RNF217
- migration robust z-score: 0.54
- migration class with cell-count check: migration z between -2 and 2; enough cells
- nuclei per well, duplicate mean: 5754

DRC5
- migration robust z-score: -2.51
- migration class with cell-count check: under 3300 nuclei; migration not judged
- nuclei per well, duplicate mean: 2958

NBPF11
- migration robust z-score: 1.4
- migration class with cell-count check: migration z between -2 and 2; enough cells
- nuclei per well, duplicate mean: 6192

ZNF207
- migration robust z-score: -1.17
- migration class with cell-count check: migration z between -2 and 2; enough cells
- nuclei per well, duplicate mean: 6494

GPR37L1
- migration robust z-score: 1.35
- migration class with cell-count check: migration z between -2 and 2; enough cells
- nuclei per well, duplicate mean: 4940

Continued, starting with the last 2 of the part before.
ZNF207
- migration robust z-score: -1.17
- migration class with cell-count check: migration z between -2 and 2; enough cells
- nuclei per well, duplicate mean: 6494

GPR37L1
- migration robust z-score: 1.35
- migration class with cell-count check: migration z between -2 and 2; enough cells
- nuclei per well, duplicate mean: 4940

NREP
- migration robust z-score: -2.78
- migration class with cell-count check: under 3300 nuclei; migration not judged
- nuclei per well, duplicate mean: 1991

DDX3Y
- migration robust z-score: -0.18
- migration class with cell-count check: migration z between -2 and 2; enough cells
- nuclei per well, duplicate mean: 4613

HYOU1
- migration robust z-score: -1.9
- migration class with cell-count check: migration z between -2 and 2; enough cells
- nuclei per well, duplicate mean: 3944

CDNF
- migration robust z-score: -0.17
- migration class with cell-count check: migration z between -2 and 2; enough cells
- nuclei per well, duplicate mean: 8104

P3H3
- migration robust z-score: -0.13
- migration class with cell-count check: migration z between -2 and 2; enough cells
- nuclei per well, duplicate mean: 4572
